Data from patent publication US20140147411A1, “METHODS OF TREATING CANCER AND TESTING MUTATION ZYGOSITY RELATED THERETO” (U.S. GOVERNMENT represented by the UNITED STATES DEPARTMENT …, priority 2012, published 2014).
At least one structure is not confirmed: it was looked up by name or label, or the drawing left a doubt.

Tests used:
CIITA = CIITA protein levels by western blot in A375 cells; details: vemurafenib with IFN-γ (2000 U/ml), 72 hours
CIITA mRNA = details: SKMEL-28 cells, vemurafenib 0.5 μM 60 minutes prior to IFN-γ (20 U/ml)
[1] = system: phospho-ERK (Thr 202/Tyr 204); test: ERK phosphorylation by western blot in A375 cells; format: cell-based; details: vemurafenib 10 μM alone and combined with IFN-γ (2000 U/ml), 72 hours

SMILES: CCCS(=O)(=O)Nc1ccc(F)c(C(=O)c2c[nH]c3ncc(-c4ccc(Cl)cc4)cc23)c1F [vemurafenib]
- levels of CIITA protein (CIITA): increased levels of CIITA protein
- CIITA steady state mRNA levels following IFN-γ (CIITA mRNA): increased CIITA steady state mRNA levels
- ERK phosphorylation levels [1]: decreased ERK phosphorylation levels
